Values of other authors in patent publication US20090137617A1, “USE OF HAPTOGLOBIN GENOTYPING IN DIAGNOSIS AND TREATMENT OF CARDIOVASCULAR DISEASE” (priority 2007, published 2009).
At least one compound was matched to its structure with a doubt left.

Settings: cited from earlier work

Row | SMILES | Relative activities
1 | Cc1c(C)c2c(c(C)c1O)CCC(C)(CCCC(C)CCCC(C)CCCC(C)C)O2 (racemic) [dl-alpha-tocopherol] | 1100 IU/g
2 | Cc1c(C)c2c(c(C)c1O)CC[C@@](C)(CCC[C@H](C)CCC[C@H](C)CCCC(C)C)O2 [d-alpha-tocopherol] | 1490 IU/g
